Source: patent publication US7220576B2, “Methods and compositions for protein expression and purification” (Lifesensors, Inc., priority 2002, dated 2007)

System: E. coli
Test: Expression level of UBL-GFP and SUMO fusion proteins in E. coli (SDS-PAGE)
Type: cell-based
Details: E. coli expression of UBLs; all fusions have Met N-termini

B1: Hub1-GFP (protein)
chain: MGHHHHHHGSDSEVNQEAKPEVKPEVKPETHINLKVSDGSSEIFFKIKKTTPLRRLMEAFAKRQGKEMDSLRFLYDGIRIQADQAPEDLDMEDNDIIEAHREQIGG
- Enhancement of protein expression by fusion: 2 fold
